Test results from patent publication US20250059284A1.
No constants are given. Whether binding was seen depends on the method and setting. Some entries that bind do so weakly or less than the wild type. Sequences can lack the tags named with a protein.

How the values were obtained:
[1] = molecular target: T1, galectin-10 (Gal10), species and tag not stated for the assay (UniProt Q05315); test: SPR Biacore 3000, binding activity after nebulization (FIG. 9)
T1 sequence (looked up): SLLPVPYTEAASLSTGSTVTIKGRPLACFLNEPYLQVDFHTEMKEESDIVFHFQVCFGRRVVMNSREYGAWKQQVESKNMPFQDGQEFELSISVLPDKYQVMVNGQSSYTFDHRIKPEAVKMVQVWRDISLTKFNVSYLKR

[2] = molecular target: T1, galectin-10 (Gal10), species and tag not stated for the assay; test: SPR Biacore 3000, galectin-10 binding activity after nebulization
[3] = molecular target: T1, galectin-10 (Gal10), species and tag not stated for the assay; test: SPR (Biacore 3000), functional active concentration of nebulized samples (Aerogen Solo, three devices) against titration curves of the T0 reference sample, as % relative activity

Measured: binding

B1: g20H09 human Fab (Fab, V domains shown)
VH: EVQLLESGGGLVQPGGSLRLSCAASGFTFRSYDMSWVRQAPGKGLEWVSAIKWHRITYYADSVKGRFTISRDNSKNTLYLQMNSLRAEDTAVYYCATTHGIGTLGFGSWGQGTLVTVSS
VL: SYELTQPLSVSVALGQTARITCDGNNIGSKSAQWYQQKPGQAPVLVIYADEYRPEGIPERFSGSNSGNTATLTISRAQAGDEADYYCQVWDGSAAVFGGGTQLTVL
binds: all assays above

B2: g24F02_N53A human Fab (Fab, V domains shown)
VH: EVQLLESGGGLVQPGGSLRLSCAASGFTFSSYAMSWVRQAPGKGLEWVSAINAGGGSTSYADSVKGRFTISRDNSKNTLYLQMNSLRAEDTAVYYCAKGLRVGVLGFDYWGQGTLVTVSS
VL: SYELTQPLSVSVALGQTARITCDGNNIGSKSAQWYQQKPGQAPVLVIYADEYRPEGIPERFSGSNSGNTATLTISRAQAGDEADYYCQVWDGSAAVFGGGTQLTVL
binds: all assays above

B3: g23H09 human Fab (Fab, V domains shown)
VH: EVQLLESGGGLVQPGGSLRLSCAASGFTFRSYDMSWVRQAPGKGLEWVSAIAQFQHWTYYADSVKGRFTISRDNSKNTLYLQMNSLRAEDTAVYYCATTHGIGTLGFGSWGQGTLVTVSS
VL: SYELTQPLSVSVALGQTARITCDGNNIGSKSAQWYQQKPGQAPVLVIYADEYRPEGIPERFSGSNSGNTATLTISRAQAGDEADYYCQVWDGSAAVFGGGTQLTVL
binds: all assays above
